Holding throughout (assay): co-IP; endogenous proteins of primary rat VSMCs; NP40 lysate incubated overnight at 4 °C with the primary antibody (or control IgG), protein A/G plus-agarose 5 h at 4 °C, three washes, Western blot
The target in test [1] is Protein kinase B 1 (AKT1), endogenous in rat VSMCs (rat (endogenous in primary rat VSMCs)) (UniProt P47196).
The target of test [2] is Kruppel-like factor 4 (KLF4), endogenous in rat VSMCs (rat (endogenous in primary rat VSMCs)) (UniProt F7F8L9).
For test [3], the target named is PP2Acα (protein phosphatase 2A catalytic subunit C, α isoform), endogenous in rat VSMCs (rat (endogenous in primary rat VSMCs)) (UniProt P63331).

The chains behind the UniProt entries cited, without tags or fusion partners.
UniProt P47196: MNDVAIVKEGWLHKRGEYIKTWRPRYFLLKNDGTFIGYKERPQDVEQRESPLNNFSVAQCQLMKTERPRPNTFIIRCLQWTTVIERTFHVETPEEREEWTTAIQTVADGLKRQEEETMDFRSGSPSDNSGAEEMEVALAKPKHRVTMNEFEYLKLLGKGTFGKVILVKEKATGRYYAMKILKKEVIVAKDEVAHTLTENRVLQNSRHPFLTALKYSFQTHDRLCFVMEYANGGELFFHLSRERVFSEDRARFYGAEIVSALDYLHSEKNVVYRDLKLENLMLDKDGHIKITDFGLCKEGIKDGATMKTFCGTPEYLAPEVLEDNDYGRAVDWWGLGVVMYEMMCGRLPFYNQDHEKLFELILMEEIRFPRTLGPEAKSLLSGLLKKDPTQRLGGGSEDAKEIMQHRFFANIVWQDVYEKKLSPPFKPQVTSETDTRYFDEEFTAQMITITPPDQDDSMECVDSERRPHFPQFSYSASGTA
UniProt F7F8L9: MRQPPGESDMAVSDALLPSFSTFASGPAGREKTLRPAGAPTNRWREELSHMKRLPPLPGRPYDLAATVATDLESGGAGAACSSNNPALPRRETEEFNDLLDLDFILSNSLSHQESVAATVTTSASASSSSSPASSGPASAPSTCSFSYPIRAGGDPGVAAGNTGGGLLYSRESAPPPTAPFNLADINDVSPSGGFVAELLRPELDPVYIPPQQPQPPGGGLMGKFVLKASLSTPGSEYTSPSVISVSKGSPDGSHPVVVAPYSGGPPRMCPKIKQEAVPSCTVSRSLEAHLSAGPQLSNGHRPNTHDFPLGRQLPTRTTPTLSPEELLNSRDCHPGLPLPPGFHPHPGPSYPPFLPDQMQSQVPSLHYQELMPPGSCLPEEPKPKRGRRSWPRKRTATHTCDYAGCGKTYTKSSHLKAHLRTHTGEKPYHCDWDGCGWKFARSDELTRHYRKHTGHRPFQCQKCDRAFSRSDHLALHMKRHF
UniProt P63331: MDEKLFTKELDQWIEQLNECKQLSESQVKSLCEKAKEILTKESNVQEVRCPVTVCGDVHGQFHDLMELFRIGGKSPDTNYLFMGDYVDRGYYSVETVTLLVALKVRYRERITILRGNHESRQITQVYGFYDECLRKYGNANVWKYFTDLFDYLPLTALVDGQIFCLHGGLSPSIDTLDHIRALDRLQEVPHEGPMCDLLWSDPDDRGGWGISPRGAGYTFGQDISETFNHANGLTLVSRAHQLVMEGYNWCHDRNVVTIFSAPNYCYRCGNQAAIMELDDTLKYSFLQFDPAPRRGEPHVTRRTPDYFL

These are yes or no findings as the source states them, for the method shown. Binding seen in cells or lysates may run through a third protein. Some entries that bind do so weakly or less than the wild type.

Here are results for three substances from publication PMC12499488.

With “Kruppel-like factor 4 (KLF4), endogenous in rat VSMCs (from UniProt F7F8L9 1-482)”, the binding entry in test [1] is given as “binds”.

Take “PP2Acα (protein phosphatase 2A catalytic subunit C, α isoform), endogenous in rat VSMCs (from UniProt P63331 1-309) (enzyme)”: the binding result in test [2] is given as “no binding”.

With “Protein kinase B 1 (AKT1), endogenous in rat VSMCs (from UniProt P47196 1-480) (enzyme)”, the binding result in test [3] is recorded as “binds”.
